Source: PubChem BioAssay AID1259254 (NCATS, 2017)

- Test: 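Genome-wide screen for genes that prevent DNA re-replication in cancer cells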 (primary screen)
- Cell system: human HCT116 colorectal cancer cells
- Knock-down reagent: single siRNA against human genes
- Timing: 3 days
- Read-out: 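Nuclei stained with Hoechst and imaged; cell-cycle phase assigned by DNA content; G2 share scaled per plate, non-targeting siRNA 0%, GMNN siRNA 100%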
- Reading the numbers: G2 robust z-score and G2 cells, % of GMNN control: higher = more G2 cells, more excess DNA replication
- Hit rule: 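An siRNA counts as active if its G2 robust z-score lies at least 5 MADs above the screen median; here such calls match roughly 38% of GMNN control or more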
The whole screen tested about 59,000 reagents; shown is a part drawn at random. About 1,550 of all reagents (2.6%) count as active. 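G2 share is only a proxy for re-replication; each gene was hit by three separate siRNAs, and active genes were retested.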 A number with no mark means an inactive call. The numbers tell different reagents against one gene apart. Further read-outs or replicates are left out here. The record does not give: the amount of reagent.

| Target gene | reagent | G2 robust z-score | G2 cells, % of GMNN control |
| --- | --- | --- | --- |
| RNF103 | 1 | -0.804 | -2.69 |
| RNF103 | 2 | -0.205 | 1.52 |
| RNF103 | 3 | -0.766 | -2.42 |
| GNA12 | 1 | -1.13 | -5.01 |
| GNA12 | 2 | -0.776 | -2.49 |
| GNA12 | 3 | -0.677 | -1.8 |
| TIPARP | 1 | -0.478 | -0.393 |
| TIPARP | 2 | -1.02 | -4.2 |
| TIPARP | 3 | -0.527 | -0.741 |
| IFFO1 | 1 | -0.647 | -1.58 |
| IFFO1 | 2 | 0.889 | 9.22 |
| IFFO1 | 3 | -0.689 | -1.88 |
| NUDT15 | 1 | 0.0728 | 3.48 |
| NUDT15 | 2 | -0.0591 | 2.55 |
| NUDT15 | 3 | -0.522 | -0.706 |
| PRELID3B | 1 | -0.131 | 2.05 |
| PRELID3B | 2 | 3.72 | 29.1 |
| PRELID3B | 3 | 0.247 | 4.71 |
| MYEF2 | 1 | 2.15 | 18.1 |
| MYEF2 | 2 | 0.721 | 8.04 |
| MYEF2 | 3 | -0.804 | -2.69 |
| F3 | 1 | 0.915 | 9.4 |
| F3 | 2 | 3.75 | 29.4 |
| F3 | 3 | 0.71 | 7.96 |
| AK8 | 1 | -1.12 | -4.88 |
| AK8 | 2 | 0.217 | 4.5 |
| AK8 | 3 | -0.868 | -3.14 |
| BTNL2 | 1 | 2.01 | 17.1 |
| BTNL2 | 2 | -1.05 | -4.43 |
| BTNL2 | 3 | -1.14 | -5.02 |
| LCN8 | 1 | -0.982 | -3.94 |
| LCN8 | 2 | -1.06 | -4.52 |
| LCN8 | 3 | 0.0144 | 3.07 |
| TEX35 | 1 | -0.476 | -0.381 |
| TEX35 | 2 | -1.36 | -6.59 |
| TEX35 | 3 | -0.318 | 0.731 |
| CTSW | 1 | -0.79 | -2.59 |
| CTSW | 2 | 1.24 | 11.7 |
| CTSW | 3 | 2.72 | 22.1 |
| SLCO1B1 | 1 | -0.35 | 0.506 |
| SLCO1B1 | 2 | 0.0733 | 3.48 |
| SLCO1B1 | 3 | 3.68 | 28.9 |
| PWWP2A | 1 | -0.76 | -2.38 |
| PWWP2A | 2 | 2.43 | 20 |
| PWWP2A | 3 | 0.246 | 4.7 |
| OR2M4 | 1 | 1.54 | 13.8 |
| OR2M4 | 2 | 1.37 | 12.6 |
| OR2M4 | 3 | -0.505 | -0.583 |
| FGB | 1 | 0.335 | 5.32 |
| FGB | 2 | 1.78 | 15.5 |
| FGB | 3 | -0.782 | -2.54 |
| POLE4 | 1 | -0.41 | 0.083 |
| POLE4 | 2 | 0.92 | 9.44 |
| POLE4 | 3 | -1.46 | -7.29 |
| ANKRA2 | 1 | 0.488 | 6.4 |
| ANKRA2 | 2 | -1.1 | -4.77 |
| ANKRA2 | 3 | 3.36 | 26.6 |
| CABIN1 | 1 | -0.535 | -0.793 |
| CABIN1 | 2 | -0.529 | -0.752 |
| CABIN1 | 3 | -0.644 | -1.56 |
| FOXA3 | 1 | 1.05 | 10.4 |
| FOXA3 | 2 | -0.972 | -3.87 |
| FOXA3 | 3 | -1.14 | -5.03 |
| STRADB | 1 | 2.26 | 18.9 |
| STRADB | 2 | -1.24 | -5.75 |
| STRADB | 3 | -0.345 | 0.541 |
| PTPRN2 | 1 | -0.709 | -2.02 |
| PTPRN2 | 2 | -0.608 | -1.31 |
| PTPRN2 | 3 | 0.0809 | 3.54 |

Records above whose target name begins with C or c:
| Target gene | reagent | G2 robust z-score | G2 cells, % of GMNN control |
| --- | --- | --- | --- |
| CTSW | 1 | -0.79 | -2.59 |
| CTSW | 2 | 1.24 | 11.7 |
| CTSW | 3 | 2.72 | 22.1 |
| CABIN1 | 1 | -0.535 | -0.793 |
| CABIN1 | 2 | -0.529 | -0.752 |
| CABIN1 | 3 | -0.644 | -1.56 |
